Laboratory results: doi:10.1101/2022.06.14.496144
Results are given in words; binding and its absence hold for the method and conditions named.

What was measured:
[1] = target: T1, Synechocystis sp. PCC 6803 Orange Carotenoid Protein clade 1 (SynOCP1) (Synechocystis sp. PCC 6803), P74102; assay: SEC-MALS; details: remark: other sources report otherwise
T1 chain: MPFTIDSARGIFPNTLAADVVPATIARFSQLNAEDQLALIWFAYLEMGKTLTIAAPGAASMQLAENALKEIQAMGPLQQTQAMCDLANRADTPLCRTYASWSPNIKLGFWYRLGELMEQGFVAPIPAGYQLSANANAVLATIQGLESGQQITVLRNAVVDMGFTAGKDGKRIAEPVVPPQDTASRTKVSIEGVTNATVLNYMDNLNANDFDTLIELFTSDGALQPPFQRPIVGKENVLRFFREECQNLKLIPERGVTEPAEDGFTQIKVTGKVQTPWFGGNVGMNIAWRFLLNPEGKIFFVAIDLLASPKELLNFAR

[2] = target: T1, Synechocystis sp. PCC 6803 Orange …; assay: SEC; details: remark: other sources report otherwise

B1: Synechocystis sp. PCC 6803 Orange Carotenoid Protein clade 1 (SynOCP1), P74102 1-317 (protein)
chain: MPFTIDSARGIFPNTLAADVVPATIARFSQLNAEDQLALIWFAYLEMGKTLTIAAPGAASMQLAENALKEIQAMGPLQQTQAMCDLANRADTPLCRTYASWSPNIKLGFWYRLGELMEQGFVAPIPAGYQLSANANAVLATIQGLESGQQITVLRNAVVDMGFTAGKDGKRIAEPVVPPQDTASRTKVSIEGVTNATVLNYMDNLNANDFDTLIELFTSDGALQPPFQRPIVGKENVLRFFREECQNLKLIPERGVTEPAEDGFTQIKVTGKVQTPWFGGNVGMNIAWRFLLNPEGKIFFVAIDLLASPKELLNFAR
With B1 the binding [1] was “no binding (tested: 5 mg/ml)” and the binding [2] was “no binding”.
